From publication doi:10.1101/2023.12.14.571783
Results are given in words; binding and its absence hold for the method and conditions named. In cells and extracts the contact can be indirect. Some binding calls cover weakened binding; strength is not graded here. For some assays here: Tags and fused reporters may be left off the sequences shown.

By UniProt entry, the sequences of proteins in these tests, tags left out.
UniProt O43707, whole entry: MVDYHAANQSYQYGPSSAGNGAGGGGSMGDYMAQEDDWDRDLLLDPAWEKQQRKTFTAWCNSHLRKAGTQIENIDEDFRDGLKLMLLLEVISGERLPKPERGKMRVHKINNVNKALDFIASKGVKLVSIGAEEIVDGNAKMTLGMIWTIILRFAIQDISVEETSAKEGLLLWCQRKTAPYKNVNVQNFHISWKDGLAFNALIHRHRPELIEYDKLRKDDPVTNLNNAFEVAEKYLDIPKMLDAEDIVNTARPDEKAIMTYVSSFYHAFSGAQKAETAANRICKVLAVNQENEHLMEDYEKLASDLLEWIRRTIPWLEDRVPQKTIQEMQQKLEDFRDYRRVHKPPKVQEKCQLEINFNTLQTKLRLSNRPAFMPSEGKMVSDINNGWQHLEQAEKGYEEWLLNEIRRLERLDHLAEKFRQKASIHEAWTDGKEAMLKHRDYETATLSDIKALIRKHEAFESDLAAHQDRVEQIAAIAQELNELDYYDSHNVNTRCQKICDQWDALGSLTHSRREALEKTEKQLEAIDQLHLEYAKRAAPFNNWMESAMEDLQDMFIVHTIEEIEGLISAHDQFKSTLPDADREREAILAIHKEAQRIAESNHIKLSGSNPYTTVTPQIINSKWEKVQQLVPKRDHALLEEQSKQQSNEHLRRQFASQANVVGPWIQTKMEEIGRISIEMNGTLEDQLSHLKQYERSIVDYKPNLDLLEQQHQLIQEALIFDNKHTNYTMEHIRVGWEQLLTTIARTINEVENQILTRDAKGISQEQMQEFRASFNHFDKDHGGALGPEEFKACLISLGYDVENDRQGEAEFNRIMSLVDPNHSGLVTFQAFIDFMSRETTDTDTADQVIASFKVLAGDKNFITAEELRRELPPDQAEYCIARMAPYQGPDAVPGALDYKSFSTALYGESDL

Tests used:
[1] = target: T1, chaperonin containing TCP1 subunit 3 (CCT3) (human (endogenous in 97L and LM3)) (UniProt P49368); test: co-IP
T1 sequence: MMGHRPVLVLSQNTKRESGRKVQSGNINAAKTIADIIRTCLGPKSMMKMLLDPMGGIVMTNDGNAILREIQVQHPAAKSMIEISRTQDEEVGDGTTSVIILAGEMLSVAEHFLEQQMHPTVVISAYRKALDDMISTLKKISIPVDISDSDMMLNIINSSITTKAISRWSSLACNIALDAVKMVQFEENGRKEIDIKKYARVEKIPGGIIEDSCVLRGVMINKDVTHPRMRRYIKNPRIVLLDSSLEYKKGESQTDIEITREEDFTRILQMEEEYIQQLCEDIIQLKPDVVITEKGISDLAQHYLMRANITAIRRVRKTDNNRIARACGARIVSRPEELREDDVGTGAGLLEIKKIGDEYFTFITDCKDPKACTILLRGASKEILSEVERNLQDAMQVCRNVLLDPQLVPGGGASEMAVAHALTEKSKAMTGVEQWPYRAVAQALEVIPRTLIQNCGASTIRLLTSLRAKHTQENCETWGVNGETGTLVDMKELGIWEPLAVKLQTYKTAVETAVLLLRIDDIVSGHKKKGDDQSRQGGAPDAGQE

Flag-CCT3 = target: T2, Flag-CCT3 (UniProt P49368); test: co-IP
T2 sequence: T1 sequence

Substance	binding [1]	binding (Flag-CCT3)
alpha-actinin-4 (ACTN4) (from UniProt O43707 1-911)	binds	
Myc-ACTN4 (from UniProt O43707 1-911)		binds
